Test results from patent publication US20030088057A1, “PEPTIDE SUBSTRATES PHOSPHORYLATED BY P21-ACTIVAGED PROTEIN KINASE STATEMENT REGARDING FEDERALLY SPONSORED REASEARCH OR DEVELOPMENT” (priority 1998, published 2003).
Some of these results come from one statement about several compounds together.

Tested on: γ-PAK
Experiment: Kinetic parameters (Km, Vmax) for phosphorylation of synthetic peptides by γ-PAK
Type: biochemical, rabbit
Description: Assays with peptides (I mM) were carried out with γ-PAK (1.6-5.6 units) in 25 μL reaction mixtures incubated for 30 min at 30° C. under conditions described above, except that 0.4 mg/mL of bovine serum albumin was added and the specific activity of ATP was 300-2000 cpm/pmol. Reactions were terminated with 5 μL of 100 mM ATP, and the amount of ^32p incorporated was quantitated by precipitation of 20 μL aliquots on P81 phosphocellulose paper with 75 mM H3PO4 as described previously [Bensen, E. S., et al., Biochim. Biophys. Acta, 1292:249-258 (1996)]. Peptides containing only one basic amino acid were analyzed by thin-layer electrophoresis on cellulose sheets for 2 h at 600 V with pyridine/acetic acid/water (10:100:890), pH 3.5, as solvent, as described previously [Bensen, E. S., et al., supra]. Activation of γ-PAK by autophosphorylation in the presence of Cdc42(GTPγS) was performed as previously described [Jakobi, R., et al., supra]. γ-PAK was also activated by limited digestion with trypsin as described previously [Rooney, R. D., et al., (1996), supra].

increase of Vmax compared to AKRASAA [fold]	Substance
> 2	AKRASEA (C-terminal amide) [synthetic peptide with an amide C-terminal group]
> 2	EKRASAA (C-terminal amide) [synthetic peptide with an amide C-terminal group]
